# PubChem BioAssay AID1347426 (Functional Genomics Laboratory (NCATS/FGL), 2020)
# About 1,400 (4.5%) of roughly 31,000 sequences were called active.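 The calls were made as follows: active = median seed-adjusted z-score above 1 or below -1; inactive = the rest.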 The list shows a part of the results.
# Assay: Novel Modifiers of Survival Motor Neuron (SMN) Protein: Gene Identification via Genome-wide siRNA Screen;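 also: luminescence tracks full-length SMN protein made from the SMN2 reporter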
# Conditions: HEK293T SMN2-luciferase reporter, siRNA knockdown, 72 h; actives lie on both sides
# In short: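 Luciferase signal, proportional to full-length SMN made from an SMN2 cDNA reporter in stable HEK293T cells, was read 72 h after siRNA reverse transfection. Values were expressed as MAD scores after non-targeting-control normalization and log10 conversion; seed analysis flagged off-targets.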
row,Sequence,median seed-adjusted z-score
1,GGAGAGCUUUAAUACGAUUTT against GRHL2,inactive: 0.0233
2,GCUACAUUCUCAACUCGGATT against MATN2,inactive: 0.275
3,CGAGUAACAUCUGCGCAUATT against PAICS,inactive: -0.725
4,GGUCAAAUGCUUACCAGGATT against RGS6,inactive: -0.904
5,GCAUAUACUGAGGAAGACATT against GPR142,inactive: -0.0636
6,GGAAUGGAAUCUACCCACUTT against NRBP2,inactive: 0.093
7,GCAAGAUCUCUAUUGGUAUTT against ABCC4,active: -1.66
8,CAAUGUCGAUAUCUAUAAATT against TMPRSS2,inactive: 0.433
9,CAAUCAGGAUUUUCACCAUTT against RBM7,inactive: 0
10,GCUAGUAUGUUGUCCAAAATT against PLK2,inactive: -0.419
11,GCAGAGCAAUGAUAUCGCUTT against CBX5,inactive: 0.404
12,CAGUUGGAGUUUAUGACAATT against BBS2,inactive: 0
13,GGGUUAACAUGGAAGAAUUTT against ZNF461,inactive: 0.0877
14,GGUUGUUGCUUGGUUCGUUTT against PREPL,inactive: -0.459
15,GAUUGAACUGUUGACGAAATT against USP34,inactive: 0.0665
16,GGAACACUUUGUAACAGCATT against TYRP1,inactive: 0.173
17,UGAAACGGGUCGUCACGGATT against HS3ST6,inactive: 0
18,GGAUUUUAGUUGUAAUGCUTT against ZSCAN10,inactive: 0
19,GAACCAGAUCAGUAACAAATT against NLRC3,inactive: 0.323
20,UCUCAUCCGCGAUAUGUUATT against NR2F1,inactive: 0.259
21,GGAAAUCCAAGAUAAACAUTT against ZNF334,inactive: 0.611
22,GACCCGAGUUCAUCGCCUATT against COX6A1,inactive: -0.0917
23,ACAUGCAGCUGGUAAGGAUTT against MFSD4,active: -1.89
24,GAGCAGAACCGCAUCAUAUTT against UCN,inactive: -0.472
25,CACCGGUGGUCUACCAUAATT against DOCK6,inactive: 0.0378
26,UGUUUAUUGUAACCAAAGATT against PPCS,inactive: 0
27,GAAAGGACCUGUAGACGAATT against PDE6C,inactive: 0.205

row,Sequence,median seed-adjusted z-score
1,ACGACAUCGUGAUUCUCCATT against ELA2,inactive: 0.586
2,GCAAGAUCCGAGACCAGUATT against PIK3R2,inactive: 0.421
3,GAGUCAAAAUCACACCGGATT against RAB8A,inactive: -0.0436
4,GAGACUUACAUAAACCGAUTT against ADH4,inactive: -0.0991
5,CCUGGUGUCUCUGUACAUATT against MC5R,inactive: 0.225
6,GCAGCUUAGGAACAGCAGATT against THOC4,active: -1.54
7,GCAAGGUUUUUGGGACUGATT against SALL4,inactive: -0.344
8,GGAAGAAAGUAUAAUAGAATT against MAFG,inactive: 0
9,CAUAAUCGAAGGUCUGAAATT against KCNAB2,inactive: 0
10,UGACUCCAAUGGGAAGAAATT against DHX33,inactive: -0.689
11,GGAACGUGUUGACUGAAGATT against C5AR1,inactive: 0.366
12,GCAUGGAUUCGGAAGGAAATT against RCC1,inactive: -0.165
13,GGAUUUACGACAUUACCAATT against E2F4,inactive: -0.395
14,GUCAGACCGUUGUAAAUCATT against TAAR6,inactive: -0.124
15,GCAUGAUAGUUUUCCGGCUTT against AHR,inactive: -0.0422
16,GGAUACCAUCUAUUACCAUTT against AGBL5,inactive: 0.0343
17,GGACCUUGGAUUAUCUGAATT against YME1L1,inactive: 0.131
18,UGAGAACCGUAUUUUCAAATT against PRODH2,inactive: 0.817
19,GGAACUACCAUGCAGGCUATT against ATP6V0B,inactive: 0
20,GGAUGGAGACUACGAGUUUTT against STK4,inactive: 0.652
21,GAUAAGAGGUCGGUACAUATT against GRIA4,inactive: 0
22,CUAUCUUCCUAGUAGUUCUTT against CDKL3,inactive: 0.243
23,GGUCUAUUCCUACGCUCUATT against NUDT5,inactive: 0.228
24,GUGUAAAUCAUUUCGAUCATT against CD180,inactive: 0
25,GGGACGUACAGAUUCCUUUTT against ACOT4,inactive: -0.158
26,AGACAAUUUGUAACUAGAATT against NEUROD2,inactive: -0.103
27,GAGUAAAGAUUGUACAGCUTT against TNKS2,inactive: 0.0545

# Reformatted with bars between the fields: entries from further up.
row | Sequence | median seed-adjusted z-score
3 | GAGUCAAAAUCACACCGGATT against RAB8A | inactive: -0.0436
4 | GAGACUUACAUAAACCGAUTT against ADH4 | inactive: -0.0991
5 | CCUGGUGUCUCUGUACAUATT against MC5R | inactive: 0.225
6 | GCAGCUUAGGAACAGCAGATT against THOC4 | active: -1.54
7 | GCAAGGUUUUUGGGACUGATT against SALL4 | inactive: -0.344
8 | GGAAGAAAGUAUAAUAGAATT against MAFG | inactive: 0
9 | CAUAAUCGAAGGUCUGAAATT against KCNAB2 | inactive: 0
10 | UGACUCCAAUGGGAAGAAATT against DHX33 | inactive: -0.689
11 | GGAACGUGUUGACUGAAGATT against C5AR1 | inactive: 0.366
12 | GCAUGGAUUCGGAAGGAAATT against RCC1 | inactive: -0.165
13 | GGAUUUACGACAUUACCAATT against E2F4 | inactive: -0.395
14 | GUCAGACCGUUGUAAAUCATT against TAAR6 | inactive: -0.124
15 | GCAUGAUAGUUUUCCGGCUTT against AHR | inactive: -0.0422
16 | GGAUACCAUCUAUUACCAUTT against AGBL5 | inactive: 0.0343
17 | GGACCUUGGAUUAUCUGAATT against YME1L1 | inactive: 0.131
18 | UGAGAACCGUAUUUUCAAATT against PRODH2 | inactive: 0.817
